# Experimental data reported in the supplement of paper PMC10849652.
# Amino acid sequences for entries named in this document (tags omitted). A change or cut given only in a name is not applied to a line headed by its entry.
# UniProt Q9Y3A5: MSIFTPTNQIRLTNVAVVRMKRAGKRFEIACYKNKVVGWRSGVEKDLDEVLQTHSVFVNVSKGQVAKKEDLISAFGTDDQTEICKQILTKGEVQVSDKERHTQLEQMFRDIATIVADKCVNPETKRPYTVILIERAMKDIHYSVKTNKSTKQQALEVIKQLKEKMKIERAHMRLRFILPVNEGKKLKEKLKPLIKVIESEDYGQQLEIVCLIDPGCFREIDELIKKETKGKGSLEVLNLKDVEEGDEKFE
# UniProt Q99442: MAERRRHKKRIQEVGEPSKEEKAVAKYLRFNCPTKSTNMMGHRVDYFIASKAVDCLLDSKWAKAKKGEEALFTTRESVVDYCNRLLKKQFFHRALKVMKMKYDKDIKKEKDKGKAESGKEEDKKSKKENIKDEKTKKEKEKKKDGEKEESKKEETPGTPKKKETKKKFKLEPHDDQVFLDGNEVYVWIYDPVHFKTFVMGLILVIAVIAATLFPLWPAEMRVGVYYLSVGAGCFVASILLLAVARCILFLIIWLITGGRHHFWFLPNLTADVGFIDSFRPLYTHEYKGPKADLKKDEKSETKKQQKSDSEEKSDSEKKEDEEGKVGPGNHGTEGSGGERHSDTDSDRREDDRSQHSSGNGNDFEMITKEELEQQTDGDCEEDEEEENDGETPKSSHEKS
# UniProt P22307: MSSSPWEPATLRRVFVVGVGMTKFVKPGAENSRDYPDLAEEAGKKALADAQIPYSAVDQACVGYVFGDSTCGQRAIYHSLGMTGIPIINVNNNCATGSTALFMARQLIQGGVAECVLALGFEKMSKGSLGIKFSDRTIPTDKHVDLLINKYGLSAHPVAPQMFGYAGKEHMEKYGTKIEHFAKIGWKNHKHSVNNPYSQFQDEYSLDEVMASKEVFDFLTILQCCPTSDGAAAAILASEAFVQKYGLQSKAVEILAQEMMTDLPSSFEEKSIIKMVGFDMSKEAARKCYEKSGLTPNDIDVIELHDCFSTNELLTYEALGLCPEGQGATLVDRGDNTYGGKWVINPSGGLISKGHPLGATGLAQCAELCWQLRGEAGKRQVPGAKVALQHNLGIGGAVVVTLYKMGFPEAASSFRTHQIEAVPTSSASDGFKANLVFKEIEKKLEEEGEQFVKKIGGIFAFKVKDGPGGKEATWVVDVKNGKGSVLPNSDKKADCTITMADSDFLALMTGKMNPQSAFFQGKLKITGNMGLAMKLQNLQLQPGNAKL
# UniProt O14828: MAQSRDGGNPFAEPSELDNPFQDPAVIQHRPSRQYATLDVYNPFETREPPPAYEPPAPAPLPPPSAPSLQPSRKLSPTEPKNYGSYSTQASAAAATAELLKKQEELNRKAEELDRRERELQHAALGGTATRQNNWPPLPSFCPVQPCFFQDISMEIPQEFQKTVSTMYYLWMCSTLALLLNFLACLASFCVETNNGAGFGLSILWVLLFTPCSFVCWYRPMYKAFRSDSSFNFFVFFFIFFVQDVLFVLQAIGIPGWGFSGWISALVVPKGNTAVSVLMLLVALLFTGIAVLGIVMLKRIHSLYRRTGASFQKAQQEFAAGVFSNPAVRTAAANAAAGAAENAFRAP
# UniProt Q9H7N4: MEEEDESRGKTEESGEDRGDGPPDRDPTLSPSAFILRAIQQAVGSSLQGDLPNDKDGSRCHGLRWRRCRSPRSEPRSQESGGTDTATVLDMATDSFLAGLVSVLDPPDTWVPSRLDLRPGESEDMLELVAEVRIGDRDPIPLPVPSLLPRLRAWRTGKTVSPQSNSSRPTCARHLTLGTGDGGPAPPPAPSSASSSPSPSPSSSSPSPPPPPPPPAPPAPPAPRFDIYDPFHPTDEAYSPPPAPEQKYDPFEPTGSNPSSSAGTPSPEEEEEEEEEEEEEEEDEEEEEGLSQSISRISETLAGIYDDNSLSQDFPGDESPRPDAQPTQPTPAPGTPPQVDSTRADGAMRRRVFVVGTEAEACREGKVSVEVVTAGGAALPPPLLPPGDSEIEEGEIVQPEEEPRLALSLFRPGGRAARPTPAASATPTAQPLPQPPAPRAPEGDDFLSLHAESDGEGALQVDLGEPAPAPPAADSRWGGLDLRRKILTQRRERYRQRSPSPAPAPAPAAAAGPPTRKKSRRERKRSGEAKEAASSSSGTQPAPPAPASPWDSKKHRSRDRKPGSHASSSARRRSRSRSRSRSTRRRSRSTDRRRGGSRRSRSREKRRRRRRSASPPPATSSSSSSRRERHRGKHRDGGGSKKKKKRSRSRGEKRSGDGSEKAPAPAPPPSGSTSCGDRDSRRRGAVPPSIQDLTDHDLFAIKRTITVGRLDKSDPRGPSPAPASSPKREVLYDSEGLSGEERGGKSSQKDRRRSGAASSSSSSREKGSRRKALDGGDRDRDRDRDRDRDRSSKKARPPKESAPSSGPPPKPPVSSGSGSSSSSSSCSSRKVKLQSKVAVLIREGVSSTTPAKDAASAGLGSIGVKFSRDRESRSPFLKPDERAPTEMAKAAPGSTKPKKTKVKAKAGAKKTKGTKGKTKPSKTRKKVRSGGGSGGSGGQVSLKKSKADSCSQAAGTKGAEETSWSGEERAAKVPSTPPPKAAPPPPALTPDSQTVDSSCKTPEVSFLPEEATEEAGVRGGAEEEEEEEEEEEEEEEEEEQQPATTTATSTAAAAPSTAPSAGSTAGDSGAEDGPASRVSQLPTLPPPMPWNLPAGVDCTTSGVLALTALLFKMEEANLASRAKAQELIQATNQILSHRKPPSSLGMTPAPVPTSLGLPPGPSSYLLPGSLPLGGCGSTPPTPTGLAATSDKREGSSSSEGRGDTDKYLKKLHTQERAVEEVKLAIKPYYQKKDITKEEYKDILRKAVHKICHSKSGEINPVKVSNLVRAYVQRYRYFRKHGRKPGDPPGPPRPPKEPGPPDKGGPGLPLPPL
# UniProt Q99470: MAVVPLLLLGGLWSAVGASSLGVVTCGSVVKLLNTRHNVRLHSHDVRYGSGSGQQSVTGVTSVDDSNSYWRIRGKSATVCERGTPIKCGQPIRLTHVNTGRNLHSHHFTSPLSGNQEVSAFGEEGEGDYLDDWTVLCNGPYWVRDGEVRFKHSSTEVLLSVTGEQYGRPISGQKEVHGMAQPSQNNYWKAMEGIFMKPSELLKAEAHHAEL
# The list shows a part of the results.
# Tests used:
# Assay in all cases: log2 fold change, soluble protein after heating vs DMSO (PISA); higher = thermal stabilisation; K562 lysate, 10 uM; active = over 0.2 and 3.5 SD of the protein, either way, in both replicates (recomputed)
# [1] = compound: C1=CC=C(C=C1)[C@H](COC2=CC3=C(C=C2)NC(=O)N3)NC(=O)C4=CC=CN(C4=O)CC5=CC(=C(C=C5)F)F
# Outline: (§1)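 Values give the log-two fold change in thermal stability against solvent controls, from duplicates. Crude K562 extract at 1 mg/mL protein, made by dounce homogenisation in PBS pH 7.4 with 1 mM MgCl2, was treated with 10 μM compound for 30 min. After 3 min heating across 48°C-58°C, aliquots were pooled, adjusted to 0.5% NP-40 at 4°C and centrifuged at 21,000xg for 90 min. The supernatant was measured by TMTpro 16plex LC-MS/MS with channel sums equalised.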
# [2] = compound: CC1=C(SC2=C1C(=N[C@H](C3=NN=C(N32)C)CC(=O)N)C4=CC=C(C=C4)Cl)C
# Outline: as §1
# [3] = compound: CC1=C2C(=CC=C1)N=C(N(C2=O)C3=CC=CC=C3C)CN4C=NC5=C(N=CN=C54)N
# Outline: as §1
# [4] = compound: Cc1sc2c(c1C)C(c1ccc(Cl)cc1)=N[C@@H](CC(=O)OC(C)(C)C)c1nnc(C)n1-2
# Outline: as §1
# [5] = compound: c1ccc([C@@H]2C[C@H]2NC2CCNCC2)cc1
# Outline: as §1
Target,log2 fold change [1],log2 fold change [2],log2 fold change [3],log2 fold change [4],log2 fold change [5]
SBDS (UniProt Q9Y3A5),inactive: -0.036,inactive: 0.03,inactive: 0.004,inactive: -0.004,inactive: -0.016
SEC62 (UniProt Q99442),inactive: 0.059,inactive: -0.017,inactive: 0.015,inactive: 0.043,inactive: -0.023
SCP2 (UniProt P22307),inactive: 0.012,inactive: 0.02,inactive: -0.002,inactive: -0.005,inactive: 0.042
SCAMP3 (UniProt O14828),inactive: 0.034,inactive: -0.048,inactive: -0.008,inactive: 0.001,inactive: -0.024
SDAD1 (UniProt Q9NVU7),inactive: 0.023,inactive: -0.013,inactive: -0.019,inactive: -0.028,inactive: 0.049
SCAF1 (UniProt Q9H7N4),inactive: 0.112,active: -0.492,inactive: 0.002,inactive: -0.007,inactive: 0.019
SDF2 (UniProt Q99470),inactive: 0.007,inactive: 0.051,–,–,–
